According to the supplement of paper PMC10849652:
Some of the results follow.

The chains behind the UniProt entries cited, without tags or fusion partners. Where a name states a change or a piece, a line headed by the entry shows the natural chain unless it says otherwise.
UniProt O75116: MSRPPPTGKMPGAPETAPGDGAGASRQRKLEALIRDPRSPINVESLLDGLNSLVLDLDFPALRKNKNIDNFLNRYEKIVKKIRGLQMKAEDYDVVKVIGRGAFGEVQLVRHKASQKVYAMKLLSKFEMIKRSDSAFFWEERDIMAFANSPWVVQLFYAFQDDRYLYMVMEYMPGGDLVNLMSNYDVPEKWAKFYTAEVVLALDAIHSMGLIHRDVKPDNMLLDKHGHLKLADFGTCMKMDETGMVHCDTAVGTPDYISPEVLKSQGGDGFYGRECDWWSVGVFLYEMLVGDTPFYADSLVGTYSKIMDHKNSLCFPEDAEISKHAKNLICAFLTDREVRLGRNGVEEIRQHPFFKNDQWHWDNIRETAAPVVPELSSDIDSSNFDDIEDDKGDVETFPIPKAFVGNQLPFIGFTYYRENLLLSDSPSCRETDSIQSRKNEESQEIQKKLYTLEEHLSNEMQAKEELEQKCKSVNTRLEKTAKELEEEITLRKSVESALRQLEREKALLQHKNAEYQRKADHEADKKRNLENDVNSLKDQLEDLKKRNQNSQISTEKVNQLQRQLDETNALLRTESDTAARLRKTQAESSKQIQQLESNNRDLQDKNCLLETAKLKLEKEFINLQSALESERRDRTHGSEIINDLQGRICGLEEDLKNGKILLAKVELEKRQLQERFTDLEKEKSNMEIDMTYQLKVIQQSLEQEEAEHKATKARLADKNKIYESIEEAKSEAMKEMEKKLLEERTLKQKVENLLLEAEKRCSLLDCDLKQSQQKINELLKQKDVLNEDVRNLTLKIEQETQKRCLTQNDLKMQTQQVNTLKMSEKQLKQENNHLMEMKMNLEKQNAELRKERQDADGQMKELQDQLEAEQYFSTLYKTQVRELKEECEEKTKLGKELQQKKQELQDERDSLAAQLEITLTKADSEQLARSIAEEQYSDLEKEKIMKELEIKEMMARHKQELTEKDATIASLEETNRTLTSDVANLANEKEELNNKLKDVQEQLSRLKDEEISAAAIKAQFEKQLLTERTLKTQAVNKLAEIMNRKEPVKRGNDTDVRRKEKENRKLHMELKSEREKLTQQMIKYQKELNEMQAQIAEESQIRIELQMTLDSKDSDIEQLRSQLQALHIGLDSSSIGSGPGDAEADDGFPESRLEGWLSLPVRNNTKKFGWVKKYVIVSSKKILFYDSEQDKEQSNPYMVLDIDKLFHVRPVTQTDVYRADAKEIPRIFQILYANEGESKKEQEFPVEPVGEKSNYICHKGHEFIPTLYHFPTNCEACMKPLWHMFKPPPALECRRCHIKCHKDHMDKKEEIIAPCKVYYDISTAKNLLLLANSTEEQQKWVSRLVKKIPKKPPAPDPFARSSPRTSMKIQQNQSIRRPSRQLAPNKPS
UniProt Q9BWH6: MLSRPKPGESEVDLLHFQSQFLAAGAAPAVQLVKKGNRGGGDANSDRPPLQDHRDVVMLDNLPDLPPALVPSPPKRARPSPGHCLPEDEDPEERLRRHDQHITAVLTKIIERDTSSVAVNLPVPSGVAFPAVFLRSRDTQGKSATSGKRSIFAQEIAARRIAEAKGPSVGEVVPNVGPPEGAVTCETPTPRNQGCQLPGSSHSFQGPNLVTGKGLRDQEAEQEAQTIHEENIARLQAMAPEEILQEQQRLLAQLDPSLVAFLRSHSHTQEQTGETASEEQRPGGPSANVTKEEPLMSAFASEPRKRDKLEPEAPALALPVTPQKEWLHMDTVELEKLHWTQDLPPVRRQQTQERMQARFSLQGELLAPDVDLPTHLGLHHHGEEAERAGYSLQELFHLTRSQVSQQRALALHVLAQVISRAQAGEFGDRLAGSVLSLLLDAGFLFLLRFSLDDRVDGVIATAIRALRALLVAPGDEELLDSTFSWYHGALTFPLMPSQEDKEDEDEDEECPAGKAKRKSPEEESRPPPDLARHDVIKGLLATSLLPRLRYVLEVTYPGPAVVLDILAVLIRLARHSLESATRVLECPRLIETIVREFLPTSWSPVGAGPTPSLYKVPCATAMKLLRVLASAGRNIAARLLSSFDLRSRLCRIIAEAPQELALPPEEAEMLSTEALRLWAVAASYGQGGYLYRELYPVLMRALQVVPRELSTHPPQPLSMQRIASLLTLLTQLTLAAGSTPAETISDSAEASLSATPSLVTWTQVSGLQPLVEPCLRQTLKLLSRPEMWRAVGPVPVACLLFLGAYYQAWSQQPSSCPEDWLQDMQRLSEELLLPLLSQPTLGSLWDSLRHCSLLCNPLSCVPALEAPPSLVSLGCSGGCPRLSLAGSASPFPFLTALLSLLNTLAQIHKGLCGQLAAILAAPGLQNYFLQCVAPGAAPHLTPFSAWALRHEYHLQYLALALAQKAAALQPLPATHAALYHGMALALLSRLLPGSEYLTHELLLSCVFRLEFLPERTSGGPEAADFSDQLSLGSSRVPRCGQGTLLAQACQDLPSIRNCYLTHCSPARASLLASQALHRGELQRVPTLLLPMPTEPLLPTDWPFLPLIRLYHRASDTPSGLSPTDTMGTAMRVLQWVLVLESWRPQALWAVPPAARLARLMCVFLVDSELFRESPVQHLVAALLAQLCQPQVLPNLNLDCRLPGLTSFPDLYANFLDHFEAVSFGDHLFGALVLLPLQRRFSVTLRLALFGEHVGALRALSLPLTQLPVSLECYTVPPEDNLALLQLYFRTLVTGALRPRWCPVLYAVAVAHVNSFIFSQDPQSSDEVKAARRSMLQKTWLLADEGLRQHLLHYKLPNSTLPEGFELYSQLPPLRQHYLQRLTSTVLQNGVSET
UniProt P15927: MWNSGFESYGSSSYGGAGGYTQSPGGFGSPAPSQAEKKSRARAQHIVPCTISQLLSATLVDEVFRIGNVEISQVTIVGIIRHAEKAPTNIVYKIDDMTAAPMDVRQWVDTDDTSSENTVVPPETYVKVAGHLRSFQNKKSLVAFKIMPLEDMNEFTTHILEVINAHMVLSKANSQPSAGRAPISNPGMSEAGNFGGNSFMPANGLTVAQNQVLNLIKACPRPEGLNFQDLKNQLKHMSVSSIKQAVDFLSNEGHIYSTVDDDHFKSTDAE
UniProt P08922: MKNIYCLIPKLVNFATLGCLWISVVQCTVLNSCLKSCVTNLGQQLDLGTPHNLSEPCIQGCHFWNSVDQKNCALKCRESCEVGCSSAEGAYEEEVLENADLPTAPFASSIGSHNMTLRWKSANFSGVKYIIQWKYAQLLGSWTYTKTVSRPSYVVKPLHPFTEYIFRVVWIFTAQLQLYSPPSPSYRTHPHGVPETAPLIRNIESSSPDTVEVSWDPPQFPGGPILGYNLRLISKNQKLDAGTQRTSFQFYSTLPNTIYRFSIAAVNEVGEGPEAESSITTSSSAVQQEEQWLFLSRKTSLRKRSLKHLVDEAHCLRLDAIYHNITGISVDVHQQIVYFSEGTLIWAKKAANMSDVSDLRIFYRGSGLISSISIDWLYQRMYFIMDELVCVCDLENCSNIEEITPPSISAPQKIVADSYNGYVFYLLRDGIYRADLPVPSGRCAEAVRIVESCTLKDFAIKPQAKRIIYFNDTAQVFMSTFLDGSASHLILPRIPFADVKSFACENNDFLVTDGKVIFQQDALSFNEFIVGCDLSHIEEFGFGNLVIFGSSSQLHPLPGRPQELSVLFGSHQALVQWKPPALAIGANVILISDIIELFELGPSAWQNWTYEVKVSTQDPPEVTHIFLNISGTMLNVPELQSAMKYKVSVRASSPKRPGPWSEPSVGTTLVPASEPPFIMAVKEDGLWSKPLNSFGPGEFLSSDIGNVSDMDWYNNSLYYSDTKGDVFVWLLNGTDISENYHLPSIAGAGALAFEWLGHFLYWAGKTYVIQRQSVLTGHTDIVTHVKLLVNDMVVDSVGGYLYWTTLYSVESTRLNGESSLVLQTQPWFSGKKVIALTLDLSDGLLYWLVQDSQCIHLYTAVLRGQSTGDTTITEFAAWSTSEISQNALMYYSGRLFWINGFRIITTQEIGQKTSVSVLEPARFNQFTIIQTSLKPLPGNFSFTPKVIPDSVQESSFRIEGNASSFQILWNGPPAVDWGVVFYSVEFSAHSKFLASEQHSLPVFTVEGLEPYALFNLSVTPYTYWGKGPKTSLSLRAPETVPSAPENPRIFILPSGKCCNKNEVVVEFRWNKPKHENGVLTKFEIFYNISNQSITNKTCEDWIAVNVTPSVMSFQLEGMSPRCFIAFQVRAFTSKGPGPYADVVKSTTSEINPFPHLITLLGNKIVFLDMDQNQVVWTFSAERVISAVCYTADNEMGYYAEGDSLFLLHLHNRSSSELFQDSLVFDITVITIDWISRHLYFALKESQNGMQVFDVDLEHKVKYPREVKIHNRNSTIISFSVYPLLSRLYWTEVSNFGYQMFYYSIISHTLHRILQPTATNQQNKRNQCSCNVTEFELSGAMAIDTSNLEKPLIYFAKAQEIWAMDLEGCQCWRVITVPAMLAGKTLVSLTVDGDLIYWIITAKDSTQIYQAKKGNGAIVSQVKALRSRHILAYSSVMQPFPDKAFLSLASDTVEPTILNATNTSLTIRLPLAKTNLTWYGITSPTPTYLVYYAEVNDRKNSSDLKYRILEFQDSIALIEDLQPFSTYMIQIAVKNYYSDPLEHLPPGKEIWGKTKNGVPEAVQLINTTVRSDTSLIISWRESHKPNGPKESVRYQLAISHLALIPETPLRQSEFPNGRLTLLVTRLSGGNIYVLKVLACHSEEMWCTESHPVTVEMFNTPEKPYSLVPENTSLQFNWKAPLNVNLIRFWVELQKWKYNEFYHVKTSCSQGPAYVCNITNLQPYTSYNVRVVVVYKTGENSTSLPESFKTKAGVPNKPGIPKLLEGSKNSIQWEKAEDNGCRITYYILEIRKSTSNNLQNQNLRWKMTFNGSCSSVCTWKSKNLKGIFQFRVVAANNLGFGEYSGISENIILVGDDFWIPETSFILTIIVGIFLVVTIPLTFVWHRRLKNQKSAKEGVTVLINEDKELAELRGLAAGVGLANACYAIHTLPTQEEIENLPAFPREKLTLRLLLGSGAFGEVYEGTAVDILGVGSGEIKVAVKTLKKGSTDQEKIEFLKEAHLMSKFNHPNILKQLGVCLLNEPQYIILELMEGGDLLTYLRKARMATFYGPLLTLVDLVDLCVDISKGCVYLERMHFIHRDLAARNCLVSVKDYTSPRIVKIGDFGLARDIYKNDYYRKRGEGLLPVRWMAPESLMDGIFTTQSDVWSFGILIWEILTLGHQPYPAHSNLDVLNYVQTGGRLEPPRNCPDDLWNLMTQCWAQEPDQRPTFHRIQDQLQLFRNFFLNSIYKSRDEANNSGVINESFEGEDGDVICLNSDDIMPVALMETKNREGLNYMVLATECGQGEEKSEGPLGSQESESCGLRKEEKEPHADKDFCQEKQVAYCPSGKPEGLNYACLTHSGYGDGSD
UniProt Q9HB90, whole entry, looked up: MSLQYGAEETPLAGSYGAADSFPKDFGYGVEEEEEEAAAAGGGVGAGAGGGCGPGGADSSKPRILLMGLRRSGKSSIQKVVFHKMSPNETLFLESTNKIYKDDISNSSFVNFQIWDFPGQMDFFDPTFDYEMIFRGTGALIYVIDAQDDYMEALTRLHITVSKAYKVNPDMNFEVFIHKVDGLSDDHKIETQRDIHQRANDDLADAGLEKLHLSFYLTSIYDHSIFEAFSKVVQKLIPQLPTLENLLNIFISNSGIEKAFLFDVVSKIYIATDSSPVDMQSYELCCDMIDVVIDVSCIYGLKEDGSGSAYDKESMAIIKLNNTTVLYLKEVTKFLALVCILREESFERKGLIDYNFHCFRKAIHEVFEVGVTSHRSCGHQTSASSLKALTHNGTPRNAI
UniProt P31350, whole entry, looked up: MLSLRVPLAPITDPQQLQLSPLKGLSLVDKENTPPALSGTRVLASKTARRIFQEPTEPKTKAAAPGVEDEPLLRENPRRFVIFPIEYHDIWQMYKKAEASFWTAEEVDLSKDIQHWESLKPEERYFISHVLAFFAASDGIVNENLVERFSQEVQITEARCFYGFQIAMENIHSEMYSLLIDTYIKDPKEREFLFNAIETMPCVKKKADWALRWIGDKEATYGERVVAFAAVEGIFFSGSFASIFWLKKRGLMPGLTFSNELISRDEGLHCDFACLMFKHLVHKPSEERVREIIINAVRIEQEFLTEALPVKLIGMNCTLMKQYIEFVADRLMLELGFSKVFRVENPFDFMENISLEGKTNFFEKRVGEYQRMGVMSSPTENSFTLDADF
UniProt P05386, whole entry, looked up: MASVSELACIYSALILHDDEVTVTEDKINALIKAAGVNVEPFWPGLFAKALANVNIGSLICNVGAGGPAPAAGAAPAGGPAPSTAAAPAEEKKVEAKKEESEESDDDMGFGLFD
UniProt O95059: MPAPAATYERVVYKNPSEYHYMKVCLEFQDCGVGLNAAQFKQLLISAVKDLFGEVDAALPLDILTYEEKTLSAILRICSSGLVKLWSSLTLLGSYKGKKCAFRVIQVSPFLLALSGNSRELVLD

Experiments:
Assay in all cases: log2 fold change, soluble protein after heating vs DMSO (PISA); higher = thermal stabilisation; K562 cells, 10 uM, 30 min; active = over 0.2 and 3.5 SD of the protein, either way, in both replicates (recomputed)
[1] = compound: COC1=CC=C(C=C1)CN2C=CC3=C2C=C(C=C3)C(=O)NO
How it was run: (§1)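 K562 cells at 2×10^6 cells/mL were treated for 30 min with 10 μM compound, and aliquots were heated for 3 min over 48°C-58°C before pooling. Extraction used PBS with 0.5% NP-40 at 4°C, and soluble protein was the supernatant after 21,000xg for 90 min, measured by TMTpro 16plex LC-MS/MS with channel sums equalised. Thermal stability values, relative to control samples and from duplicates, are log2 fold changes.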

filanesib = compound: CON(C)C(=O)N1N=C(c2cc(F)ccc2F)S[C@@]1(CCCN)c1ccccc1 [filanesib]
How it was run: as §1

zotarolimus = compound: CO[C@H]1C[C@@H]2CC[C@@H](C)[C@@](O)(O2)C(=O)C(=O)N2CCCC[C@H]2C(=O)O[C@H]([C@H](C)C[C@@H]2CC[C@H](n3cnnn3)[C@H](OC)C2)CC(=O)[C@H](C)/C=C(\C)[C@@H](O)[C@@H](OC)C(=O)[C@H](C)C[C@H](C)/C=C/C=C/C=C/1C [zotarolimus]
How it was run: as §1

idasanutlin = compound: COc1cc(C(=O)O)ccc1NC(=O)[C@@H]1N[C@@H](CC(C)(C)C)[C@](C#N)(c2ccc(Cl)cc2F)[C@H]1c1cccc(Cl)c1F [idasanutlin]
How it was run: as §1

alisertib = compound: COc1cc(Nc2ncc3c(n2)-c2ccc(Cl)cc2C(c2c(F)cccc2OC)=NC3)ccc1C(=O)O [alisertib]
How it was run: as §1

[2] = compound: COc1cc2nc(-c3cc(F)ccc3O)nc(N[C@@H]3CNC[C@H]3C(C)(C)O)c2cc1OC
How it was run: as §1

gefitinib = compound: COc1cc2ncnc(Nc3ccc(F)c(Cl)c3)c2cc1OCCCN1CCOCC1 [gefitinib]
How it was run: as §1

[3] = compound: COc1cccc2cc(-c3nc([C@H]4CC[C@H](C(=O)O)CC4)n4ncnc(N)c34)[nH]c12
How it was run: as §1

lapatinib = compound: CS(=O)(=O)CCNCc1ccc(-c2ccc3ncnc(Nc4ccc(OCc5cccc(F)c5)c(Cl)c4)c3c2)o1 [lapatinib]
How it was run: as §1

pictilisib = compound: CS(=O)(=O)N1CCN(Cc2cc3nc(-c4cccc5[nH]ncc45)nc(N4CCOCC4)c3s2)CC1 [pictilisib]
How it was run: as §1

Measured: log2 fold change

RPL9 (UniProt P32969)
inactive: [1] -0.038 | filanesib 0.563 | zotarolimus 0.066 | idasanutlin 0.304 | alisertib -0.16 | [2] -0.137 | gefitinib -0.075 | [3] -0.46 | lapatinib 0.29 | pictilisib -0.31

RPSA (UniProt P08865)
inactive: [1] -0.059 | filanesib 0.076 | zotarolimus -0.031 | idasanutlin 0.017 | alisertib -0.106 | [2] 0.019 | gefitinib 0 | [3] -0.093 | lapatinib 0.036 | pictilisib 0

RPL31 (UniProt P62899)
inactive: [1] -0.084 | filanesib 0.277 | zotarolimus -0.013 | idasanutlin 0.151 | alisertib -0.118 | [2] -0.013 | gefitinib -0.075 | [3] -0.25 | lapatinib 0.103 | pictilisib -0.092

RPS3A (UniProt P61247)
inactive: [1] -0.112 | filanesib 0.117 | zotarolimus 0.006 | idasanutlin 0.069 | alisertib -0.052 | [2] -0.009 | gefitinib -0.06 | [3] -0.152 | lapatinib 0.053 | pictilisib -0.078

RO60 (UniProt P10155)
inactive: [1] 0.024 | filanesib 0.021 | zotarolimus -0.024 | idasanutlin 0.009 | alisertib -0.08 | [2] -0.04 | gefitinib -0.012 | [3] 0.042 | lapatinib -0.005 | pictilisib 0.067

ROCK2 (UniProt O75116)
inactive: [1] -0.009 | filanesib -0.006 | zotarolimus 0.023 | idasanutlin 0 | alisertib 0.072 | [2] 0.135 | gefitinib 0.045 | [3] -0.038 | lapatinib -0.029 | pictilisib 0.071

RPL22L1 (UniProt Q6P5R6)
inactive: [1] 0.13 | filanesib 0.065

RPL17 isoform 3 (UniProt P18621)
inactive: [1] -0.007 | filanesib 0.37 | zotarolimus 0.013 | idasanutlin 0.256 | alisertib -0.169 | [2] -0.115 | gefitinib -0.038 | [3] -0.271 | lapatinib 0.215 | pictilisib -0.019

RPS4X (UniProt P62701)
inactive: [1] -0.059 | filanesib 0.314 | zotarolimus -0.001 | idasanutlin 0.148 | alisertib -0.099 | [2] -0.038 | gefitinib -0.048 | [3] -0.222 | lapatinib 0.102 | pictilisib -0.155

RPL7 (UniProt P18124)
inactive: [1] -0.104 | filanesib 0.799 | zotarolimus 0.033 | idasanutlin 0.369 | alisertib -0.157 | [2] -0.151 | gefitinib -0.071 | [3] -0.477 | lapatinib 0.384 | pictilisib -0.215

RPAP1 (UniProt Q9BWH6)
inactive: [1] -0.028 | filanesib -0.02 | zotarolimus 0.049 | idasanutlin -0.128 | alisertib -0.012 | [2] -0.009 | gefitinib 0.001 | [3] 0.02 | lapatinib 0.024 | pictilisib -0.02

RPL10A (UniProt P62906)
inactive: [1] -0.12 | filanesib 0.741 | zotarolimus 0.07 | idasanutlin 0.349 | alisertib -0.139 | [2] -0.149 | gefitinib -0.064 | [3] -0.392 | lapatinib 0.373 | pictilisib -0.185

Reprinted from the listing (seven entries):
RPL9 (UniProt P32969)
inactive: [1] -0.038 | filanesib 0.563 | zotarolimus 0.066 | idasanutlin 0.304 | alisertib -0.16 | [2] -0.137 | gefitinib -0.075 | [3] -0.46 | lapatinib 0.29 | pictilisib -0.31

RPSA (UniProt P08865)
inactive: [1] -0.059 | filanesib 0.076 | zotarolimus -0.031 | idasanutlin 0.017 | alisertib -0.106 | [2] 0.019 | gefitinib 0 | [3] -0.093 | lapatinib 0.036 | pictilisib 0

RPL31 (UniProt P62899)
inactive: [1] -0.084 | filanesib 0.277 | zotarolimus -0.013 | idasanutlin 0.151 | alisertib -0.118 | [2] -0.013 | gefitinib -0.075 | [3] -0.25 | lapatinib 0.103 | pictilisib -0.092

RPS3A (UniProt P61247)
inactive: [1] -0.112 | filanesib 0.117 | zotarolimus 0.006 | idasanutlin 0.069 | alisertib -0.052 | [2] -0.009 | gefitinib -0.06 | [3] -0.152 | lapatinib 0.053 | pictilisib -0.078

RO60 (UniProt P10155)
inactive: [1] 0.024 | filanesib 0.021 | zotarolimus -0.024 | idasanutlin 0.009 | alisertib -0.08 | [2] -0.04 | gefitinib -0.012 | [3] 0.042 | lapatinib -0.005 | pictilisib 0.067

ROCK2 (UniProt O75116)
inactive: [1] -0.009 | filanesib -0.006 | zotarolimus 0.023 | idasanutlin 0 | alisertib 0.072 | [2] 0.135 | gefitinib 0.045 | [3] -0.038 | lapatinib -0.029 | pictilisib 0.071

RPL22L1 (UniProt Q6P5R6)
inactive: [1] 0.13 | filanesib 0.065

(continued)

RPA2 isoform 3 (UniProt P15927)
inactive: [1] -0.026 | filanesib 0.009 | zotarolimus -0.005 | idasanutlin -0.014 | alisertib -0.024 | [2] 0.03 | gefitinib -0.011 | [3] -0.041 | lapatinib -0.096 | pictilisib -0.049

RPS19 (UniProt P39019)
inactive: [1] 0 | filanesib 0.102 | zotarolimus -0.015 | idasanutlin 0.113 | alisertib -0.114 | [2] -0.024 | gefitinib -0.049 | [3] -0.12 | lapatinib 0.059 | pictilisib -0.137

RPS6 (UniProt P62753)
inactive: [1] -0.093 | filanesib 0.528 | zotarolimus 0.073 | idasanutlin 0.091 | alisertib -0.116 | [2] -0.27 | gefitinib -0.054 | [3] -0.342 | lapatinib 0.311 | pictilisib -0.156

RPL13A (UniProt P40429)
inactive: [1] -0.115 | filanesib 0.715 | zotarolimus 0.077 | idasanutlin 0.306 | alisertib -0.181 | [2] -0.266 | gefitinib -0.099 | [3] -0.453 | lapatinib 0.407 | pictilisib -0.27

RPL8 (UniProt P62917)
inactive: [1] -0.103 | filanesib 0.714 | zotarolimus 0.08 | idasanutlin 0.341 | alisertib -0.239 | [2] -0.21 | gefitinib -0.069 | [3] -0.408 | lapatinib 0.328 | pictilisib -0.177

RPL35A (UniProt P18077)
inactive: [1] -0.123 | filanesib 0.857 | zotarolimus -0.008 | idasanutlin 0.342 | alisertib -0.201 | [2] -0.136 | gefitinib -0.065 | [3] -0.423 | lapatinib 0.363 | pictilisib -0.204

ROS1 (UniProt P08922)
inactive: [1] -0.357 | filanesib 0.567 | zotarolimus -0.073 | idasanutlin -0.122 | alisertib -0.028 | [2] 0.207 | gefitinib -0.044 | [3] 0.069 | lapatinib -0.091 | pictilisib 0.19

RRAGC (UniProt Q9HB90)
inactive: [1] -0.028 | filanesib -0.095 | zotarolimus -0.009 | idasanutlin -0.065 | alisertib -0.003 | [2] 0.011 | gefitinib -0.01 | [3] 0.057 | lapatinib -0.01 | pictilisib 0.066

RRM2 isoform 2 (UniProt P31350)
inactive: [1] -0.1 | filanesib -0.04 | zotarolimus 0.019 | idasanutlin 0.004 | alisertib -0.037 | [2] -0.038 | gefitinib 0.002 | [3] 0.016 | lapatinib 0.027 | pictilisib 0.02

RPL18 (UniProt Q07020)
inactive: [1] -0.144 | filanesib 0.718 | zotarolimus -0.042 | idasanutlin 0.399 | alisertib -0.218 | [2] -0.191 | gefitinib -0.071 | [3] -0.514 | lapatinib 0.373 | pictilisib -0.236

RPL6 (UniProt Q02878)
inactive: [1] -0.105 | filanesib 0.762 | zotarolimus 0.083 | idasanutlin 0.317 | alisertib -0.198 | [2] -0.163 | gefitinib -0.102 | [3] -0.48 | lapatinib 0.366 | pictilisib -0.155

RPS9 (UniProt P46781)
inactive: [1] -0.036 | filanesib 0.237 | zotarolimus 0.032 | idasanutlin 0.098 | alisertib -0.101 | [2] -0.083 | gefitinib -0.055 | [3] -0.211 | lapatinib 0.084 | pictilisib -0.195

RPLP1 (UniProt P05386)
inactive: [1] -0.27 | filanesib 0.684 | zotarolimus 0.193 | idasanutlin 0.321 | alisertib -0.143 | [2] -0.369 | gefitinib -0.013 | [3] -0.243 | lapatinib 0.228 | pictilisib -0.114

RPS27L (UniProt Q71UM5)
inactive: [1] 0.044 | filanesib 0.065 | zotarolimus 0.04 | idasanutlin 0.056 | alisertib -0.053 | [2] 0.036 | gefitinib -0.035 | [3] -0.152 | lapatinib -0.012 | pictilisib 0

RPL35 (UniProt P42766)
inactive: [1] -0.063 | filanesib 0.493 | zotarolimus -0.015 | idasanutlin 0.182 | alisertib -0.193 | [2] -0.082 | gefitinib -0.066 | [3] -0.315 | lapatinib 0.078 | pictilisib -0.165

RPS21 (UniProt P63220)
inactive: [1] -0.033 | filanesib 0.086 | zotarolimus -0.021 | idasanutlin 0.031 | alisertib -0.069 | [2] 0.04 | gefitinib 0.002 | [3] -0.022 | lapatinib -0.027 | pictilisib -0.01

RPL7A (UniProt P62424)
inactive: [1] -0.115 | filanesib 0.796 | zotarolimus 0.107 | idasanutlin 0.362 | alisertib -0.188 | [2] -0.235 | gefitinib -0.036 | [3] -0.457 | lapatinib 0.319 | pictilisib -0.379

RPS8 (UniProt P62241)
inactive: [1] -0.05 | filanesib 0.403 | zotarolimus 0.057 | idasanutlin 0.154 | alisertib -0.11 | [2] -0.19 | gefitinib -0.054 | [3] -0.235 | lapatinib 0.172 | pictilisib -0.243

RPP14 (UniProt O95059)
inactive: [1] -0.006 | filanesib 0.046 | zotarolimus 0.004 | idasanutlin -0.038 | alisertib -0.051 | [2] -0.053 | gefitinib -0.022 | [3] 0.047 | lapatinib 0.042 | pictilisib -0.19
